Data reported in patent US20260216294A1, “BETA 2-ADRENERGIC RECEPTOR AGONISTS FOR TREATMENT OR PREVENTION OF MUSCLE WASTING” (ATROGI AB, priority 2023, published 2026).
For at least one compound, name, drawing or mass did not settle the structure.

Columns and labels:
C57Bl/6N mice [1] = assay: Combination of Compound B and liraglutide in mice on high-fat, high-sucrose diet (Biological Example 7); format: in vivo; details: diet-induced obese mice, daily s.c. for 2 weeks, liraglutide 0.1 mg/kg, Compound B 1.4 mg/kg
C57Bl/6N mice [2] = assay: Combination of Compound C and liraglutide in mice on high-fat, high-sucrose diet (Biological Example 8); format: in vivo; details: diet-induced obese mice; daily s.c. for 2 weeks; liraglutide 0.1 mg/kg, Compound C 5 mg/kg; FIG. 9b
Procedure: 2.5 Months old male C57Bl/6N mice were grouped caged (4-5 mice per cage), kept at 30° C. and fed with high-fat, high-sucrose diet (45% fat) for 5 months. The mice were divided into four groups (2-3 mice per cage) according to their fasting blood glucose levels, glucose tolerance, body weight, body fat and lean mass, and treated daily for 2 weeks, subcutaneously with either vehicle, liraglutide (0.1 mg/kg), Compound C (5 mg/kg), or a mixture of liraglutide (0.1 mg/kg) and Compound C (5 mg/kg). Food intake and body weight were measured every other day; body fat and lean mass were measured weekly.

## CCCCCCCCCCCCCCCC(=O)N[C@@H](CCC(=O)NCCCC[C@H](NC(=O)[C@H](C)NC(=O)[C@H](C)NC(=O)[C@H](CCC(N)=O)NC(=O)CNC(=O)[C@H](CCC(=O)O)NC(=O)[C@H](CC(C)C)NC(=O)[C@H](Cc1ccc(O)cc1)NC(=O)[C@H](CO)NC(=O)[C@H](CO)NC(=O)[C@@H](NC(=O)[C@H](CC(=O)O)NC(=O)[C@H](CO)NC(=O)[C@@H](NC(=O)[C@H](Cc1ccccc1)NC(=O)[C@@H](NC(=O)CNC(=O)[C@H](CCC(=O)O)NC(=O)[C@H](C)NC(=O)[C@@H](N)Cc1cnc[nH]1)[C@@H](C)O)[C@@H](C)O)C(C)C)C(=O)N[C@@H](CCC(=O)O)C(=O)N[C@@H](Cc1ccccc1)C(=O)N[C@H](C(=O)N[C@@H](C)C(=O)N[C@@H](Cc1c[nH]c2ccccc12)C(=O)N[C@@H](CC(C)C)C(=O)N[C@H](C(=O)N[C@@H](CCCNC(=N)N)C(=O)NCC(=O)N[C@@H](CCCNC(=N)N)C(=O)NCC(=O)O)C(C)C)[C@@H](C)CC)C(=O)O [liraglutide]
C57Bl/6N mice [1]; FIG. 9a
  cumulative food intake: reduced food intake as compared to the control
C57Bl/6N mice [1]; FIG. 10a
  change in body weight: significant reduction
C57Bl/6N mice [1]; FIG. 11a
  change in fat mass: significant reduction
C57Bl/6N mice [2]
  cumulative food intake: reduced food intake as compared to the control
